# The campaign covered roughly 1,200 compounds. About 480 (40%) were called active. This list was built around the results that the source calls inconclusive (neither active nor inactive); the mix of calls is not that of the screen. Calls follow the shape of the dose curve; as a rule, active = well fitted inhibition curve with a large enough effect; inconclusive = small, poorly fitted or top-dose-only effect; inactive = no such curve, though single readings can be large or run the other way. Where the call is inconclusive, the potency comes from a doubtful curve fit.
# Experiment: qHTS Assay to Find Inhibitors of Chronic Active B-Cell Receptor Signaling: Hit Validation in Primary Screen; also: nearly all actives have a fitted effect of over 75% in size
# Settings: ABC-DLBCL IkB-luc/CBR ratio luminescence, 4 h; series mostly up to 46.1 µM
# Summary of the method: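 TMD8 ABC-DLBCL cells carrying doxycycline-inducible IkBa-green luciferase fusion and free red luciferase, 0.5% FBS, dosed 46 uM–3 nM with doxycycline for 4 h at 37C. Green/red luminescence ratio normalized to basal and 10 uM MG-132.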
# Potency is read from the fitted curve at half-maximal effect.
row,SMILES,Potency
1,COc1ccccc1-c1cc(C(=O)NCCc2ccccc2)no1,"inconclusive: 25.9 µM [inhibitor, partial curve, poor fit]"
2,CCOc1ccc2nc(NC(=O)c3ccc(OC)c(S(=O)(=O)N4CCOCC4)c3)sc2c1,"inconclusive: 0.92 µM [inhibitor, full curve]"
3,CC(=O)Nc1nc2ccc(-c3nc4ccccc4o3)cc2s1,"inconclusive: 4.11 µM [inhibitor, partial curve]"
4,COc1cc2c(cc1OC)C(c1cc3cc(OC)c(OC)cc3[nH]c1=O)N(C(=O)C1CC1)CC2 (configuration not stated),"inconclusive: 20.6 µM [inhibitor, single point]"
5,Cc1ccccc1C1=NC(C(F)(F)F)(C(F)(F)F)c2c(n(C)c(=O)n(C)c2=O)N1,inactive
6,S=C(Nc1ccccc1Cl)N(Cc1ccccc1)Cc1ccccn1,inactive
7,CCc1ccc(N2CC(C(=O)OCC(=O)Nc3ccccc3C)CC2=O)cc1 (configuration not stated),inactive
8,CCc1nnc(NC(=S)Nc2ccccc2)s1,active: 0.651 µM
9,Cc1ccc(OC/C(=N\O)C(C)(C)C)c([N+](=O)[O-])c1,"inconclusive: 20.6 µM [inhibitor, partial curve]"
10,CCOc1nc(OCC)nc(N2CCC(C)CC2)n1,"inconclusive: 14.6 µM [inhibitor, partial curve, poor fit]"
11,O=C(CCl)Nc1cc(S(=O)(=O)N2CCCCCC2)ccc1Cl,active: 20.6 µM
12,COc1ccc([C@H]2CC(=O)C=C(c3ccc(OC)cc3OC)C2)cc1,active: 16.4 µM
13,C=CCC(CC(O)COCCC)C(=O)NNC(=S)Nc1ccccc1 (configuration not stated),inactive
14,COc1ccc(C)cc1Nc1cc(C)nc2ncnn12,"inconclusive: 20.6 µM [inhibitor, partial curve, poor fit]"
15,CC1CCC2C(=O)N(c3ccc(C(=O)Oc4cccc5cccnc45)cc3)C(=O)C2C1 (configuration not stated),inactive
16,Cc1c(CCC(=O)NCCCC(=O)O)c(=O)oc2cc3oc4c(c3cc12)CCCC4,"inconclusive: 8.2 µM [inhibitor, partial curve]"
17,CN1CCN(C(=S)NC(=O)c2ccc(-c3ccccc3)cc2)CC1,"inconclusive: 16.4 µM [inhibitor, single point]"
18,C=CCNc1ncnc2c1ncn2C1OC(CO)C(O)C1O (configuration not stated),active: 23.1 µM
19,CCC(C)n1c(NC(=O)c2ccccc2)c(C#N)c2nc3ccccc3nc21 (configuration not stated),"inconclusive: 29.1 µM [inhibitor, single point]"
20,COc1ccccc1CNC(=O)CSc1ccc(Br)cc1,"inconclusive: 14.6 µM [inhibitor, single point]"
21,Cc1c(C(=O)OCC(C)C)[nH]c2c1C(=O)CC(c1cccs1)C2 (configuration not stated),"inconclusive: 4.11 µM [inhibitor, partial curve]"
22,COC(=O)c1cc(C#N)c(N(C)Cc2ccccc2)nc1C,"inconclusive: 9.2 µM [inhibitor, partial curve]"

# Arranged by formula weight (ascending): some entries from above.
row,SMILES,Potency
10,CCOc1nc(OCC)nc(N2CCC(C)CC2)n1,"inconclusive: 14.6 µM [inhibitor, partial curve, poor fit]"
3,CC(=O)Nc1nc2ccc(-c3nc4ccccc4o3)cc2s1,"inconclusive: 4.11 µM [inhibitor, partial curve]"
13,C=CCC(CC(O)COCCC)C(=O)NNC(=S)Nc1ccccc1 (configuration not stated),inactive
6,S=C(Nc1ccccc1Cl)N(Cc1ccccc1)Cc1ccccn1,inactive
5,Cc1ccccc1C1=NC(C(F)(F)F)(C(F)(F)F)c2c(n(C)c(=O)n(C)c2=O)N1,inactive

# The list continues.

row,SMILES,Potency
1,NNC(=O)/C(=C\c1ccco1)NC(=O)c1ccco1,inactive
2,CCCCCOC(=O)c1[nH]c2c(c1C)C(=O)CC(c1ccco1)C2 (configuration not stated),"inconclusive: 0.231 µM [inhibitor, full curve]"
3,NC(=S)N/N=C/c1ccccc1OC(=O)/C=C/c1ccccc1,inactive
4,COc1ccc(-c2c(C)c3ccc(O)cc3oc2=O)cc1OC,"inconclusive: 14.6 µM [inhibitor, partial curve]"
5,Cc1ccc(Cl)cc1NC(=S)N/N=C/c1cccc2ccccc12,inactive
6,COc1ccc(CCNC(=O)C(=O)c2c(C)n(C)c3ccccc23)cc1OC,"inconclusive: 11.6 µM [inhibitor, partial curve]"
7,Cc1ccc(/C(C#N)=C\c2ccc(N3CCOCC3)o2)cc1,inactive
8,NC(=S)N=Nc1c(O)n(Cc2ccc(F)cc2)c2ccccc12,"inconclusive: 20.6 µM [inhibitor, partial curve, poor fit]"
9,COc1ccc(-c2nnc(SCC(=O)NCc3ccccc3)nc2-c2ccc(OC)c(OC)c2)cc1OC,"inconclusive: 4.61 µM [inhibitor, full curve]"
10,COc1cc(Br)cc(/C=C/c2ccc3cccc(O)c3n2)c1O,active: 20.6 µM
11,Cc1ccccc1NCC(=O)c1ccc(Br)cc1,inactive
12,CCCCNC(=S)NNC(=O)CCn1nc(C)c(Br)c1C,inactive
13,Cc1cccc(C)c1OCC(=O)N/N=C/C=C/c1ccco1,inactive
14,COc1ccc(CN(C)C(=O)Cn2cnc3c(NCc4ccccc4)ncnc32)cc1OC,inactive
15,CCO[C@H]1OC(C(=O)NCc2nc3ccccc3[nH]2)=C[C@@H](C2CC2)[C@@H]1CCCO,active: 18.4 µM
16,COc1ccc(S(=O)(=O)N2CCOCC2)cc1NC(=O)/C=C/c1ccc(F)cc1,"inconclusive: 10.3 µM [inhibitor, partial curve]"
17,COc1ccc(Nc2nc(-c3c(C)nc4ncccn34)cs2)cc1,active: 2.31 µM
18,CCOc1ccccc1N=NC1C(=O)N(C(N)=S)N=C1C (configuration not stated),inactive
19,Cc1ccc(NC(=S)NNC(=S)Nc2ccc(C)cc2C)cc1,active: 1.84 µM
20,COc1cc2nc(=S)n3[nH]c(COc4ccccc4C)nc3c2cc1OC,"inconclusive: 9.2 µM [inhibitor, partial curve]"
21,CCCc1noc2c1C(c1ccoc1)C(C#N)=C(N)N2 (configuration not stated),"inconclusive: 18.4 µM [inhibitor, single point]"
22,O=C(CSc1cccc[n+]1[O-])c1ccc(Cl)s1,inactive

row,SMILES,Potency
1,COc1ccc(NC(=S)N/N=C/c2ccc(F)c(F)c2)cc1,inactive
2,O=C(/C=C/c1ccco1)NC(=S)Nc1cccc(-c2nc3ccccc3o2)c1,"inconclusive: 4.11 µM [inhibitor, full curve]"
3,COc1ccc(-c2nn(-c3ccccc3)cc2/C=C/C(=O)O)cc1[N+](=O)[O-],"inconclusive: 11.6 µM [inhibitor, partial curve]"
4,COc1ccc(-c2sc3cc(OC)c(OC)cc3c2C#CC(C)(C)O)cc1,"inconclusive: 3.66 µM [inhibitor, full curve]"
5,O=C1NC(=O)C(=C2CCCCCC2)S1,inactive
6,CN(/N=C/c1cc(Br)cc(Br)c1O)c1cccc(C(F)(F)F)n1,"inconclusive: 23.1 µM [inhibitor, single point]"
7,CCOC(=O)CSc1nc(C)c2cccc(C)c2n1,"inconclusive: 25.9 µM [inhibitor, partial curve]"
8,O=C(COc1ccc(C(=O)c2ccc(F)cc2)cc1)NCc1ccc(F)cc1,"inconclusive: 5.17 µM [inhibitor, full curve]"
9,CCOC(=O)C(NC(=O)N(C)C)(Nc1sc(C)c(CC)c1C#N)C(F)(F)F (configuration not stated),inactive
10,COc1ccc(N(C(=O)c2ccccc2C)S(=O)(=O)c2cccs2)cc1,active: 5.17 µM
11,COc1cc(C(=O)Nc2ccc(C)cc2)c2ccccc2n1,"inconclusive: 3.26 µM [inhibitor, full curve]"
12,COc1cc(C(c2sc3nc(C)nn3c2O)N2CCN(c3ccccc3)CC2)cc(OC)c1OC (configuration not stated),"inconclusive: 9.2 µM [inhibitor, partial curve, poor fit]"
13,CCN(c1ccccc1)S(=O)(=O)c1ccc(C(=O)NC2CCN(Cc3ccccc3)CC2)cc1,"inconclusive: 16.4 µM [inhibitor, partial curve, poor fit]"
14,CC1=CC(C)(C)N(S(=O)(=O)c2ccc(C)cc2)c2cc(C)ccc21,"inconclusive: 2.31 µM [inhibitor, full curve]"
15,CCCN1C(=O)C(=O)c2cc(Cl)ccc21,active: 18.4 µM
16,CCOC(=O)c1ccccc1NS(=O)(=O)c1ccc(OCC)cc1,"inconclusive: 3.66 µM [inhibitor, full curve]"
17,COc1ccc(C)cc1NC(=O)CNC(c1ccccc1)c1ccc(C)cc1 (configuration not stated),"inconclusive: 5.8 µM [inhibitor, partial curve]"
18,COc1ccc(C(=O)n2c(-c3ccco3)nc3ccccc32)cc1,active: 18.4 µM
19,CC1CCCN(c2ccc([N+](=O)[O-])cc2C(=O)c2ccccc2)C1 (configuration not stated),active: 3.26 µM
20,Cn1c(=O)n(Cc2ccccc2Br)c2ccccc21,"inconclusive: 20.6 µM [inhibitor, partial curve]"
21,Nc1ccc(C(=O)n2c3ccccc3c3ccccc32)cc1,active: 13 µM
22,COc1ccc(S(=O)(=O)Nc2cc3c(C(C)=O)c(C)oc3c3ccccc23)cc1,active: 2.06 µM

row,SMILES,Potency
1,Cc1cnn(CCC(=O)NNC(=S)NCC(C)C)c1,inactive
2,CCCn1nc(Oc2nc(N(C)C)nc(N(C)C)n2)ccc1=O,"inconclusive: 25.9 µM [inhibitor, single point]"
3,COc1ccc(/C=N/NC(=O)c2[nH]c3ccc(Br)cc3c2-c2ccccc2)cc1,active: 0.231 µM
4,COc1ccc(OC)c(C(=O)COC(=O)c2[nH]c(C)c(C(C)=O)c2C)c1,"inconclusive: 20.6 µM [inhibitor, partial curve]"
5,COc1ccc(NS(=O)(=O)c2cc(NC(=O)CNC(=O)c3cccc(OC)c3)ccc2C)cc1,inactive
6,O=C(Nc1nc2ccc(F)cc2s1)c1ccccn1,active: 1.46 µM
7,COCCNC(=S)N/N=C(\C)c1ccc2cc(OC)ccc2c1,"inconclusive: 0.326 µM [inhibitor, full curve]"
8,C#CCOCCOCCOCCNc1nc(N2CCN(C(=O)[C@H](C(C)C)n3cc(CCO)nn3)CC2)nc(N2CCN(C(=O)[C@H]([C@@H](C)CC)n3cc(CCCN=C(N)N)nn3)CC2)n1,inactive
9,Cc1cc(C)n(-c2nc3ccccc3c(=O)n2OCC#N)n1,active: 23.1 µM
10,COc1ccc(/C=C/C(=O)c2cc(F)ccc2OC(=O)c2ccc(OC)c(OC)c2)cc1OC,active: 23.1 µM
11,CN(C)c1nc(=NCc2ccco2)ss1,"inconclusive: 20.6 µM [inhibitor, partial curve]"
12,Cc1noc(C)c1COc1ccc(C(=O)NCc2cccs2)cc1,"inconclusive: 18.4 µM [inhibitor, partial curve]"
13,CCc1ccc(CCC(=O)Nc2ncc(Cc3ccccc3Cl)s2)o1,active: 2.91 µM
14,Cc1ccc(NC(=O)c2ccco2)c([N+](=O)[O-])c1,"inconclusive: 16.4 µM [inhibitor, partial curve]"
15,O=C(/C=C/c1cccs1)c1cc(Br)ccc1OC(=O)N1CCOCC1,"inconclusive: 16.4 µM [inhibitor, single point]"
16,CCN(c1ccccc1)S(=O)(=O)c1ccc(C(=O)NNC(=O)c2ccccc2F)cc1,"inconclusive: 20.6 µM [inhibitor, partial curve, poor fit]"
17,Cc1cc(NC2CCCCC2)nc2ccccc12,inactive
18,O=C(CCl)Nc1cccc(S(=O)(=O)NC2=NCCC2)c1,active: 13 µM
19,COc1ccc(S(N)(=O)=O)cc1C(=O)OCCCOC(=O)c1cc(S(N)(=O)=O)ccc1OC,inactive
20,O=C(Oc1c(CN2CCOCC2)cc(Cl)c2cccnc12)c1ccccc1F,inactive
21,CCCCC[C@H](O)/C=C/[C@@H]1[C@@H](CCCCCCC(=O)O)[C@@H](O)C[C@H]1O,"inconclusive: 3.66 µM [inhibitor, full curve]"
